Reference: paper PMC5006001

Sequences of proteins named here, by UniProt entry; tags and fusion partners are left off. Residues count along the entry.
UniProt P17156: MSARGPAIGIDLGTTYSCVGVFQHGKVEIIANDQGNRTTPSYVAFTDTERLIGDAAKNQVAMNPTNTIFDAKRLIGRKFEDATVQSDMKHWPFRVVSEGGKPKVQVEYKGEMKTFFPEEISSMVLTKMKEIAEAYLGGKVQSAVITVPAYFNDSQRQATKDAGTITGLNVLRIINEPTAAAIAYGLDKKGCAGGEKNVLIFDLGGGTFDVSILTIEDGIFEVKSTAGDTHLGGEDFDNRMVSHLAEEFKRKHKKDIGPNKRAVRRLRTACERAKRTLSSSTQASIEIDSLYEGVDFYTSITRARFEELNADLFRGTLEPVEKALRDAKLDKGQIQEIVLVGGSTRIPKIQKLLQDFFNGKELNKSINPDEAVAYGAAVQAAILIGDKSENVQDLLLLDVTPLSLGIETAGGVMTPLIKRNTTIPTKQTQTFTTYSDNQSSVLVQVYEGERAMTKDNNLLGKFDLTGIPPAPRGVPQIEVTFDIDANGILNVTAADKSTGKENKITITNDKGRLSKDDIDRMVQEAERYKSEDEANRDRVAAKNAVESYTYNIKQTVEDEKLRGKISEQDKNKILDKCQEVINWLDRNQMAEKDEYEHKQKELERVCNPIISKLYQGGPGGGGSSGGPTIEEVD
UniProt P20029, residues 20-655: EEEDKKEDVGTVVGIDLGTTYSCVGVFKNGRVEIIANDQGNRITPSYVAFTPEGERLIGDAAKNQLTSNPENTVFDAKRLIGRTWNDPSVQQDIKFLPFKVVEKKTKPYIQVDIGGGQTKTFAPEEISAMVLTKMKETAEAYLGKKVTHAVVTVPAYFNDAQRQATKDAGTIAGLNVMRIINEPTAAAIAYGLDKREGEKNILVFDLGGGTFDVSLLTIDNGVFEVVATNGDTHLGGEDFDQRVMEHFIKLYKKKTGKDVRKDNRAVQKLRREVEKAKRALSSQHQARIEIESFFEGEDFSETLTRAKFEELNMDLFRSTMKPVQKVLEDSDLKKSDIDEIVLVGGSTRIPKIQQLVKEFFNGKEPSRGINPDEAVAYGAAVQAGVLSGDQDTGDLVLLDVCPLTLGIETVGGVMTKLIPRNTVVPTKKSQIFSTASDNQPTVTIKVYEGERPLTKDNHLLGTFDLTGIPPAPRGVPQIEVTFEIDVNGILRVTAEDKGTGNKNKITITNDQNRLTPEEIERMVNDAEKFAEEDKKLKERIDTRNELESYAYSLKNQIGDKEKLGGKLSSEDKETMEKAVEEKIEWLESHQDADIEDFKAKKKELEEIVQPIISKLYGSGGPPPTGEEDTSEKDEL

T1: Trf2 tagged on its C-terminus with a 6xHis-Tev-3xFlag tag (mouse (endogenous in testis, knock-in allele)) (UniProt P62340)
T1 sequence: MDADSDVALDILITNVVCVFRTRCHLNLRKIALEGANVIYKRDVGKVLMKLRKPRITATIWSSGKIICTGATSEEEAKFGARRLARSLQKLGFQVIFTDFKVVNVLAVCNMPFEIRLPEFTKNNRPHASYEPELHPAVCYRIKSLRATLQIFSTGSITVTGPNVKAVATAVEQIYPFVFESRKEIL


Tests used:
[1] = biological target: T1, Trf2 tagged on its C-terminus with a 6xHis-Tev-3xFlag tag (mouse (endogenous in testis, knock-in allele)); assay: affinity purification with mass spectrometry; tandem Flag-His purification of tagged Trf2 from pooled gel filtration fractions B3-B7; SDS-PAGE, silver staining, gel sections excised and analysed by mass spectrometry; WT testis as control
[2] = biological target: T1, Trf2 tagged on its C-terminus with a 6xHis-Tev-3xFlag tag (mouse (endogenous in testis, knock-in allele)); assay: as above; remark: listed apart in the source

| binding [1] | binding [2] | Molecule |
| --- | --- | --- |
| binds | – | Hspa2 (from UniProt P17156 1-633) |
| binds | – | Hspa5 (from UniProt P20029 20-655) |
| – | binds | ALF (TFIIA-like factor) (protein, UniProt Q8R4I4 1-468) MAFINLVPKLYQSVIEDVIEGVRDLFAEEGIEEQVLKDLKKLWETKVLQSKATEDFFRNSTQVPLLTLQLPHALPPALQPEASLLIPAGRTLPSFTPEDLNTANCGANFAFAGYPIHVPAGMAFQTASGHLYKVNVPVMVTQTSGRTEILQHPFQQVLQQLGQPLVIQTTVPTLHPCSLQAATEKSLRMEAVLQPPPILHPPPVDRTHVENAASDRRLLPGNELRPQESSPYLSLPGVGFPPQAALTESSLEPVLGVSASLTQNLHSDPFSQGPPGPLHHHLLESQLQSLKDSIYGCDSTKQLRKAEEPSSLRVSEKNCTSERDLNIRVTDDDINEIIQIDGTGDNSSTEEMGSIRDADENEFPGIIDAGDLNVLEEVDSVSNEDSTANSSDNEDHQINAPEEDPLNSGDDVSEQDVPDLFDTENVIVCQYDKIHRSKNRWKFYLKDGVMCFGGRDYVFAKAIGEAEW |

Read-outs that look alike come from different tables or passages of the source. No constants are given. Whether binding was seen depends on the method and setting. Binding seen in cells or lysates may run through a third protein. These calls come from enrichment with a bait or labelling near it, and not all partners need be listed. Sequences can lack the tags named with a protein.
